Data as given in the supplement of paper PMC10849652.
This is one part of the list.

The chains behind the UniProt entries cited, without tags or fusion partners. Where a name states a change or a piece, a line headed by the entry shows the natural chain unless it says otherwise.
UniProt Q8N3U4: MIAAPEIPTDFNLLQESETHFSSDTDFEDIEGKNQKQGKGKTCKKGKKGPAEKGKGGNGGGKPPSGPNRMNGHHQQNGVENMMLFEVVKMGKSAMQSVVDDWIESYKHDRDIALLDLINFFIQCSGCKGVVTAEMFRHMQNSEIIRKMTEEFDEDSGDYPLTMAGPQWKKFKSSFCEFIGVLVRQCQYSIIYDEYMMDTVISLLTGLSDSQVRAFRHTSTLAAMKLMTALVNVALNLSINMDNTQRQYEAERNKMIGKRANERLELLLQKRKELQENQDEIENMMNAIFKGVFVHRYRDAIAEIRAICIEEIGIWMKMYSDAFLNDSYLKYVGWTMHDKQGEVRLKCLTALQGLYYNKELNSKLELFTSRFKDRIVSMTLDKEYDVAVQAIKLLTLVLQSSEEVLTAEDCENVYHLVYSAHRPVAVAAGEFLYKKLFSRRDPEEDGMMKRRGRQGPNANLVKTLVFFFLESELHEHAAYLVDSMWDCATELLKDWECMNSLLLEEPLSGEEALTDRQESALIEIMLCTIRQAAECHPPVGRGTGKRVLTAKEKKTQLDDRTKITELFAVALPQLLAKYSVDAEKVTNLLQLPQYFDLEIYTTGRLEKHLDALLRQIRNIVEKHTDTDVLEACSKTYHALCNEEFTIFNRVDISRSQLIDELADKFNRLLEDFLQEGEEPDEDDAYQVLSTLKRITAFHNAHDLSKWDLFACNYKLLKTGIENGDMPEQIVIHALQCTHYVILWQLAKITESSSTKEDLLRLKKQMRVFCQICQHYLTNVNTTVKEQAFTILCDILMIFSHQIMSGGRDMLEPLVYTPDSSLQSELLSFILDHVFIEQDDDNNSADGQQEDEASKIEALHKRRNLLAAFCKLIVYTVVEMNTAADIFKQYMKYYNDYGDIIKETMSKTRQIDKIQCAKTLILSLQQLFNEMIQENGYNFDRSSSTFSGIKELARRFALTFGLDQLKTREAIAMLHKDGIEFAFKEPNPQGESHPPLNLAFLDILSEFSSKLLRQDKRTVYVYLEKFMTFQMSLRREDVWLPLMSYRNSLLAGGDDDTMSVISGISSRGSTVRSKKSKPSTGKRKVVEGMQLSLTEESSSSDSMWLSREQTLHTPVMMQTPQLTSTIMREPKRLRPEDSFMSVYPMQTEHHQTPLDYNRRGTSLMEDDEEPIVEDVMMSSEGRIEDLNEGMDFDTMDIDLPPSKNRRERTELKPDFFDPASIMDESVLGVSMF
UniProt Q14534: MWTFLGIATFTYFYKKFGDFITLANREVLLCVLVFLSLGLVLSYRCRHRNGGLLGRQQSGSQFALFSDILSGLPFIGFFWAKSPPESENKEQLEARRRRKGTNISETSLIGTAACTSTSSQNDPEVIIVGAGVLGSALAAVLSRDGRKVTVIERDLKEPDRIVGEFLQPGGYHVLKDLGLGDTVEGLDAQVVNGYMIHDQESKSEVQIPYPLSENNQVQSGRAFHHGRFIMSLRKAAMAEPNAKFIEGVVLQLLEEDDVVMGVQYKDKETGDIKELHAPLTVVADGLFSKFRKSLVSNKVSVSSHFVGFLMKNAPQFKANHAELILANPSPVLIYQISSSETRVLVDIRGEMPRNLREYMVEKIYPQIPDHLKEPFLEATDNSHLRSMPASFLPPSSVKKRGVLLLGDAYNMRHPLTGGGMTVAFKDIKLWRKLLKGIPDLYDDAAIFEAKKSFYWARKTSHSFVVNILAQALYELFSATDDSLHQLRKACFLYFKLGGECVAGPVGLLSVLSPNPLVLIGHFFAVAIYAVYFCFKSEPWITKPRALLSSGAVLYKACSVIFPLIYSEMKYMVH
UniProt Q92783: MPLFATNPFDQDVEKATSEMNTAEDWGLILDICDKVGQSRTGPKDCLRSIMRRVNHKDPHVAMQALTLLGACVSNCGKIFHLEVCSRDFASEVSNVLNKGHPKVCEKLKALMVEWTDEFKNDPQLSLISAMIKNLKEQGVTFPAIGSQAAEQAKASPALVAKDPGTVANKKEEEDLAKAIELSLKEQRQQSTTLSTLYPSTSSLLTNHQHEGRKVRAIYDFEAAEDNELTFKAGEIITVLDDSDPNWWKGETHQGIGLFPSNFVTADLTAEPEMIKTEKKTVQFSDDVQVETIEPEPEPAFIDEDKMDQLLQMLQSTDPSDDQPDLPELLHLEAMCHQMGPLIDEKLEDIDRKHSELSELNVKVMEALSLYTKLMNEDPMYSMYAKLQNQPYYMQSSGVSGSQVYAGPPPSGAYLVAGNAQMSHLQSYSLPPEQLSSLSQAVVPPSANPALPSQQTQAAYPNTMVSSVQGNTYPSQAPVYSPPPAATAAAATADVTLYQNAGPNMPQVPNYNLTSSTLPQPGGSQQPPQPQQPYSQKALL
UniProt O43805: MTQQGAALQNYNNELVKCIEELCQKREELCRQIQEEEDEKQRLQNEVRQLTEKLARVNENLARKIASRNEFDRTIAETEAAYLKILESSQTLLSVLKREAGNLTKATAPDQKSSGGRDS
UniProt Q9H2V7: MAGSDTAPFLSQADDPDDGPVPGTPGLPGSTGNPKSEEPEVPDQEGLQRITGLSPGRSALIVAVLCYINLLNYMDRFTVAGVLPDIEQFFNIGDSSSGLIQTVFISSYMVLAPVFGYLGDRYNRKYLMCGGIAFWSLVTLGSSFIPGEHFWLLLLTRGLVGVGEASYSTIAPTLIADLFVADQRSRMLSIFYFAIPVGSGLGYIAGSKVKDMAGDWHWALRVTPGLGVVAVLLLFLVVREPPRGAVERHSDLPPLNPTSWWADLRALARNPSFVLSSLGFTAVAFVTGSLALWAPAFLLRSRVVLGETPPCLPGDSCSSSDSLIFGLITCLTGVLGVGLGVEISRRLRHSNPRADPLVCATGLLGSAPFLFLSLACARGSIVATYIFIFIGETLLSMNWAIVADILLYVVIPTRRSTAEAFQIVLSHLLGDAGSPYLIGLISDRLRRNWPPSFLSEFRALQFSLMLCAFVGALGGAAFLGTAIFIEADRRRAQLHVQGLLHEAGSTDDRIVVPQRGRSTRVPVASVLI
UniProt P61009: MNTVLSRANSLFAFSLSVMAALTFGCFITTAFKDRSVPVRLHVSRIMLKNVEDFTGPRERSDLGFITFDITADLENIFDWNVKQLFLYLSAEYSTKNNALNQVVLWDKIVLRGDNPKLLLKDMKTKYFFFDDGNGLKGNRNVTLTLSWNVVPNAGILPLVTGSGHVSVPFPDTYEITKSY
UniProt Q5W111: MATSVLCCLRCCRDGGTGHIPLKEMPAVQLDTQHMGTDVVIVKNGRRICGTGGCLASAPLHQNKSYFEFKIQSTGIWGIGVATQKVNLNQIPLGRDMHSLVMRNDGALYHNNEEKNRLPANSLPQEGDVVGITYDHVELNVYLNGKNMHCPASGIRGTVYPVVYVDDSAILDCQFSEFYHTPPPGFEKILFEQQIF
UniProt O15020, whole entry, looked up: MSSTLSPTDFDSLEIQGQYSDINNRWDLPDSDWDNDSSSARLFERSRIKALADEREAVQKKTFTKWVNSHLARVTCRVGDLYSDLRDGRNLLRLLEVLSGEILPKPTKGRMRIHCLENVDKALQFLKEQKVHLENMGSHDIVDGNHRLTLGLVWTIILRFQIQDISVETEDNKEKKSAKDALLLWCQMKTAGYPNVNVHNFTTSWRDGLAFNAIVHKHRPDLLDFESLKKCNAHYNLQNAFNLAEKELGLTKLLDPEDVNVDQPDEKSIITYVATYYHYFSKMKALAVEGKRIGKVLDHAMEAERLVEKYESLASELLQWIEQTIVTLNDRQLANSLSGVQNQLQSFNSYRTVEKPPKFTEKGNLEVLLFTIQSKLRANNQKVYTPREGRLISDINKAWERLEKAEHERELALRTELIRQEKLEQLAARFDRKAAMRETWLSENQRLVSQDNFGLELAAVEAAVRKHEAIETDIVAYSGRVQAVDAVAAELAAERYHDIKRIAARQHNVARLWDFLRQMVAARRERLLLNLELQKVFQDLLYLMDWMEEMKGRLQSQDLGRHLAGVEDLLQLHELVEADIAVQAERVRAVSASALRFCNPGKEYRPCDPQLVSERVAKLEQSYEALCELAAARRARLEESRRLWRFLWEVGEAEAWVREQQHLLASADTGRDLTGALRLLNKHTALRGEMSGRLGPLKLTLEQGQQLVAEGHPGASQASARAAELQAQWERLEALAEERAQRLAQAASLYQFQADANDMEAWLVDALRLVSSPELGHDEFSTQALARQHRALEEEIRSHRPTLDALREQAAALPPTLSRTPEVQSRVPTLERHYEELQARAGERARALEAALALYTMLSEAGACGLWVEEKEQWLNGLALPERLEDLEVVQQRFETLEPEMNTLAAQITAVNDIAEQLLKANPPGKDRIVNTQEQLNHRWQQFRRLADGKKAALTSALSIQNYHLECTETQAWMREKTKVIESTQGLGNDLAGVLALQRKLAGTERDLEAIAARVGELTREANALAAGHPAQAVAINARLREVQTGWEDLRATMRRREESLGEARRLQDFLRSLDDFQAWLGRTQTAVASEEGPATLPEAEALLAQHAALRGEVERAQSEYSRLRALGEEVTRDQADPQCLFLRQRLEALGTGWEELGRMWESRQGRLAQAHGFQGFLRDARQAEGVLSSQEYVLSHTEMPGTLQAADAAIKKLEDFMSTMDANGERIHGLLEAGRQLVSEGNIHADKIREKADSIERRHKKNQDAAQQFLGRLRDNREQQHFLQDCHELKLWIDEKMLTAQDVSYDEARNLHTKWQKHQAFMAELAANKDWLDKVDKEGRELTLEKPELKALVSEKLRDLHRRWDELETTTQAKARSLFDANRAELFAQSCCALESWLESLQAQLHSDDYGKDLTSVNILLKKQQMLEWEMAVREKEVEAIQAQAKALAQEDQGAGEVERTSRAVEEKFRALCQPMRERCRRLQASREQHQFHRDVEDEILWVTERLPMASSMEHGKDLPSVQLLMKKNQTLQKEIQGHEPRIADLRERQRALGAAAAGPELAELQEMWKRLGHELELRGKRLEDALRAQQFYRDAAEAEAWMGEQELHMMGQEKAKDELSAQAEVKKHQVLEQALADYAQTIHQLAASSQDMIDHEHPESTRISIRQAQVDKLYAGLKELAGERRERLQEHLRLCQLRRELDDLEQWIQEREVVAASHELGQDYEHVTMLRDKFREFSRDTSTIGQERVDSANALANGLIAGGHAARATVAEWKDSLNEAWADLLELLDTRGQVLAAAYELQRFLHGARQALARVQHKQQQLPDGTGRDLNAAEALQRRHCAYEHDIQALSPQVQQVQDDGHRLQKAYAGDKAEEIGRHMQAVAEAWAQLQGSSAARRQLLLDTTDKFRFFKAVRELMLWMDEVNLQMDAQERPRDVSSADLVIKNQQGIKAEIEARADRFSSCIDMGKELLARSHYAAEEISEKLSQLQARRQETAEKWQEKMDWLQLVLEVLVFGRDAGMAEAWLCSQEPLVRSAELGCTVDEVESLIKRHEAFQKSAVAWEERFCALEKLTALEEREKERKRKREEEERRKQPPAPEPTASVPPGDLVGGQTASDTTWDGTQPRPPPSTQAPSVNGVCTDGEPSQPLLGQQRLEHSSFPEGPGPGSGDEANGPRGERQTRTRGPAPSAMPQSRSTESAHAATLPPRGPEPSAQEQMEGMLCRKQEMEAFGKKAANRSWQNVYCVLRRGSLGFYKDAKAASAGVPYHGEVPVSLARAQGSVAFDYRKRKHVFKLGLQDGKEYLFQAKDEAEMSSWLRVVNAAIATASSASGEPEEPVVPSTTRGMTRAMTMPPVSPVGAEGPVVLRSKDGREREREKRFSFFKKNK
UniProt Q9Y657, whole entry, looked up: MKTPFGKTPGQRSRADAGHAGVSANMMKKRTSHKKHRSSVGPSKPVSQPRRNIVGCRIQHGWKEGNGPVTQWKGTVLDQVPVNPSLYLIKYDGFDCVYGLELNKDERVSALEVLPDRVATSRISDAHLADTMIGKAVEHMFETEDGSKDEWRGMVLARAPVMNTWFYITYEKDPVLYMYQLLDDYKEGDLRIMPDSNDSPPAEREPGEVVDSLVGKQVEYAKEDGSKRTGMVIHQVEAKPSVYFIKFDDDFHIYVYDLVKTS
UniProt P50502: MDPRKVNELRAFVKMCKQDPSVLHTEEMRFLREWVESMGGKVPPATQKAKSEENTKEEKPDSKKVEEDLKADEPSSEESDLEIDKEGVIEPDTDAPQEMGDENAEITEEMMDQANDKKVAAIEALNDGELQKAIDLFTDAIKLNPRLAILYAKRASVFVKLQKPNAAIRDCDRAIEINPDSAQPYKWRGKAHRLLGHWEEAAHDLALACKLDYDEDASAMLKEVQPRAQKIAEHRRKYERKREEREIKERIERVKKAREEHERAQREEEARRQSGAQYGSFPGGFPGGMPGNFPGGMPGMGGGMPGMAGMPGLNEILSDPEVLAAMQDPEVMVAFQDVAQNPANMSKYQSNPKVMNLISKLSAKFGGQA
UniProt P10124: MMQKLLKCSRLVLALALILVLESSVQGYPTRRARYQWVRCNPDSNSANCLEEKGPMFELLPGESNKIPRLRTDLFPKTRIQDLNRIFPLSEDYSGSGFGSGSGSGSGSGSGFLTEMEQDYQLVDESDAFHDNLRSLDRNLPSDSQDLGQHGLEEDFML

Each target was assayed with CS(=O)(=O)c1ccc(-c2cnc(N)c(C(=O)Nc3ccccc3)n2)cc1 (assay: log2 fold change, soluble protein after heating vs DMSO (PISA); higher = thermal stabilisation; K562 cells, 10 uM, 30 min; active = over 0.2 and 3.5 SD of the protein, either way, in both replicates (recomputed)).
In short: (§1)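 Soluble protein was quantified by TMTpro 16plex LC-MS/MS after channel sums were equalised. It was obtained as the supernatant after 21,000xg for 90 min from pooled aliquots of K562 cells (2×10^6 cells/mL, 10 μM compound, 30 min) heated for 3 min across 48°C-58°C and extracted in PBS with 0.5% NP-40 at 4°C. Thermal stability values are relative to control samples and come from duplicates. They are given as log2 fold changes.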

Target | log2 fold change
STAG2 (UniProt Q8N3U4) | inactive: 0.035
SQLE (UniProt Q14534) | inactive: -0.009
SSH2 (UniProt Q76I76) | inactive: -0.064
SPARC (UniProt P09486) | inactive: -0.01
SPTB isoform 2 (UniProt P11277) | inactive: 0.23
STAM (UniProt Q92783) | inactive: -0.041
SSNA1 (UniProt O43805) | inactive: -0.071
SPNS1 (UniProt Q9H2V7) | inactive: 0.048
SPCS3 (UniProt P61009) | inactive: 0.057
SPRYD7 (UniProt Q5W111) | inactive: -0.012
ST7 (UniProt Q9NRC1) | inactive: -0.002
SPTBN2 (UniProt O15020) | inactive: -0.118
SPIN1 (UniProt Q9Y657) | inactive: 0.108
SPCS1, A0A5F9YFS9 | inactive: 0.031
ST13 (UniProt P50502) | inactive: 0.007

These targets were tested with C[C@@H](Oc1cc(-c2cnn(C3CCNCC3)c2)cnc1N)c1c(Cl)ccc(F)c1Cl [crizotinib] in the same assay as above.
In short: as §1

Target | log2 fold change
SSBP1 (UniProt Q04837) | inactive: 0.077
STAMBP (UniProt O95630) | inactive: 0.083
SPC25 (UniProt Q9HBM1) | inactive: -0.062
SRRM1 (UniProt Q8IYB3) | inactive: -0.1
SSR1 (UniProt P43307) | inactive: 0.026
SRRT (UniProt Q9BXP5) | inactive: -0.13
STK11 (UniProt Q15831) | inactive: 0.063
SPTA1 (UniProt P02549) | inactive: -0.012
SPTAN1 isoform 2 (UniProt Q13813) | inactive: 0.149
SRP9 (UniProt P49458) | inactive: 0.072
SPN (UniProt P16150) | inactive: 0.217
SPTLC2 (UniProt O15270) | inactive: 0.066
SRGN (UniProt P10124) | inactive: 0.036
SRPK1 (UniProt Q96SB4) | inactive: -0.07
SPG7 (UniProt Q9UQ90) | inactive: -0.014
SRP19 (UniProt P09132) | inactive: 0.02
SPRY4 (UniProt Q9C004) | inactive: 0.01
SPC24 (UniProt Q8NBT2) | inactive: -0.011
STAU1 (UniProt O95793) | inactive: 0.022

Target | log2 fold change
SRP14 (UniProt P37108) | inactive: 0.091
SRSF5 (UniProt Q13243) | inactive: 0.003
SRM (UniProt P19623) | inactive: -0.147
STIP1 isoform 2 (UniProt P31948) | inactive: 0.017
SPATA5 (UniProt Q8NB90) | inactive: 0.05
STAG2 (UniProt Q8N3U4) | inactive: 0.027
SQLE (UniProt Q14534) | inactive: -0.093
SPARC (UniProt P09486) | inactive: 0.085
SPTB isoform 2 (UniProt P11277) | inactive: -0.056
STAM (UniProt Q92783) | inactive: -0.041
SSNA1 (UniProt O43805) | inactive: 0.015
SPNS1 (UniProt Q9H2V7) | inactive: -0.113
SPCS3 (UniProt P61009) | inactive: 0.079
SPRYD7 (UniProt Q5W111) | inactive: -0.056
ST7 (UniProt Q9NRC1) | inactive: 0.072
SPTBN2 (UniProt O15020) | inactive: 0.058
SPIN1 (UniProt Q9Y657) | inactive: 0.029
SPCS1, A0A5F9YFS9 | inactive: -0.022
ST13 (UniProt P50502) | inactive: -0.003

These targets were tested with C[C@@H]1COCCN1C2=NC(=NC(=C2)C3(CC3)S(=O)(=O)C)C4=C5C=CNC5=CC=C4 in the same assay as above.
In short: as §1

Target | log2 fold change
SSBP1 (UniProt Q04837) | inactive: -0.076
STAMBP (UniProt O95630) | inactive: 0.066
SPC25 (UniProt Q9HBM1) | inactive: -0.08
SRRM1 (UniProt Q8IYB3) | inactive: -0.177
SSR1 (UniProt P43307) | inactive: -0.023
SRRT (UniProt Q9BXP5) | inactive: 0.217
STK11 (UniProt Q15831) | inactive: 0.019
SPTA1 (UniProt P02549) | inactive: -0.142
SPTAN1 isoform 2 (UniProt Q13813) | inactive: 0.024
SRP9 (UniProt P49458) | inactive: -0.386
SPN (UniProt P16150) | inactive: -0.007
SPTLC2 (UniProt O15270) | inactive: 0.022
SRGN (UniProt P10124) | inactive: -0.139
SRPK1 (UniProt Q96SB4) | inactive: -0.468
SPG7 (UniProt Q9UQ90) | inactive: 0.03
SRP19 (UniProt P09132) | inactive: -0.009
SPRY4 (UniProt Q9C004) | inactive: -0.014
SPC24 (UniProt Q8NBT2) | inactive: 0.143
STAU1 (UniProt O95793) | inactive: -0.76

Target | log2 fold change
SRP14 (UniProt P37108) | inactive: -0.516
SRSF5 (UniProt Q13243) | inactive: -0.387
SRM (UniProt P19623) | inactive: 0.148
STIP1 isoform 2 (UniProt P31948) | inactive: 0.03
SPATA5 (UniProt Q8NB90) | inactive: -0.045
STAG2 (UniProt Q8N3U4) | inactive: 0.045
SQLE (UniProt Q14534) | inactive: 0.006
SPARC (UniProt P09486) | inactive: -0.058
SPTB isoform 2 (UniProt P11277) | inactive: -0.126
STAM (UniProt Q92783) | inactive: 0.042
SSNA1 (UniProt O43805) | inactive: 0.056
SPNS1 (UniProt Q9H2V7) | inactive: 0.07
SPCS3 (UniProt P61009) | inactive: 0.028
SPRYD7 (UniProt Q5W111) | inactive: 0.124
ST7 (UniProt Q9NRC1) | inactive: -0.055
SPTBN2 (UniProt O15020) | inactive: -0.13
SPIN1 (UniProt Q9Y657) | inactive: 0.118
SPCS1, A0A5F9YFS9 | inactive: 0.046
ST13 (UniProt P50502) | inactive: 0.058
